PubChem BioAssay AID1159578 | Peter MacCallum Cancer Centre, 2015
Purpose: 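siRNA pools altering how lymphatic endothelial cells close a scratch wound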 (primary screen). System: human lymphatic endothelial cells. Knock-down reagent: siRNA pool against human genes, 40 nM. Duration: 48 h after transfection. Measured: 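High-content imaging of dye-stained cells in a scratch assay measures filled wound area and nuclei per well; duplicate means given as ratio to mock and robust z-score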. Scale: migration robust z-score: higher = faster migration into the scratch; nuclei per well: higher = more cells in the well. Hit rule: 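Migration changed when robust z exceeds 2 or falls below -2 and mean nuclei number is at least 3300; otherwise not called changed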. Calls: active = migration changed; inactive = no migration change, or too few cells.
Shown is an unselected part of about 18,000 reagents. Over the whole deposit, about 1,030 (5.7%) were called active. 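Inactive calls also include pools with fewer than 3300 nuclei, whose migration was not assessed.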 Raw values are not corrected between plates. Further read-outs or replicates are left out here. No sequences are given here.

For FOXJ2 (forkhead box J2) [SID255358881], what was measured?
migration robust z-score: -0.7; migration class with cell-count check: migration z between -2 and 2; enough cells; nuclei per well, duplicate mean: 3760; Outcome: inactive

What did the screen give for GIT2 (GIT ArfGAP 2) [SID255354578]?
migration robust z-score: 0.71; migration class with cell-count check: migration z between -2 and 2; enough cells; nuclei per well, duplicate mean: 6014; Outcome: inactive

What did the screen give for CERKL (CERK like autophagy regulator) [SID255365363]?
migration robust z-score: -0.62; migration class with cell-count check: migration z between -2 and 2; enough cells; nuclei per well, duplicate mean: 7213; Outcome: inactive

For PCDHB8 (protocadherin beta 8) [SID255359014], what was measured?
migration robust z-score: 0.12; migration class with cell-count check: migration z between -2 and 2; enough cells; nuclei per well, duplicate mean: 7222; Outcome: inactive

How did the screen score MFSD12 (major facilitator superfamily domain containing 12) [SID255362703]?
migration robust z-score: -0.14; migration class with cell-count check: migration z between -2 and 2; enough cells; nuclei per well, duplicate mean: 6280; Outcome: inactive

What did the screen give for SDHAF2 (succinate dehydrogenase complex assembly factor 2) [SID255358295]?
migration robust z-score: 2.56; migration class with cell-count check: migration z above 2; enough cells; nuclei per well, duplicate mean: 5341; Outcome: active

How did the screen score GCC1 (GRIP and coiled-coil domain containing 1) [SID255360302]?
migration robust z-score: -0.45; migration class with cell-count check: migration z between -2 and 2; enough cells; nuclei per well, duplicate mean: 6556; Outcome: inactive

With AGT (angiotensinogen) [SID255348237], what does the deposit list?
migration robust z-score: 0.05; migration class with cell-count check: migration z between -2 and 2; enough cells; nuclei per well, duplicate mean: 6562; Outcome: inactive

For ETNK2 (ethanolamine kinase 2) [SID255358516], how do the results read?
migration robust z-score: -3.87; migration class with cell-count check: migration z below -2; enough cells; nuclei per well, duplicate mean: 3631; Outcome: active

With ERAL1 (Era like 12S mitochondrial rRNA chaperone 1) [SID255356760], what does the deposit list?
migration robust z-score: -0.52; migration class with cell-count check: migration z between -2 and 2; enough cells; nuclei per well, duplicate mean: 5201; Outcome: inactive

What is on record for PRNP (prion protein (Kanno blood group)) [SID255351836]?
migration robust z-score: 2.31; migration class with cell-count check: migration z above 2; enough cells; nuclei per well, duplicate mean: 4935; Outcome: active

What is on record for WFDC9 (WAP four-disulfide core domain 9) [SID255364576]?
migration robust z-score: -0.58; migration class with cell-count check: migration z between -2 and 2; enough cells; nuclei per well, duplicate mean: 5909; Outcome: inactive

Reagents listed so far called active (3):
SDHAF2 (succinate dehydrogenase complex assembly factor 2) [SID255358295] — migration robust z-score: 2.56; migration class with cell-count check: migration z above 2; enough cells; nuclei per well, duplicate mean: 5341; Outcome: active
ETNK2 (ethanolamine kinase 2) [SID255358516] — migration robust z-score: -3.87; migration class with cell-count check: migration z below -2; enough cells; nuclei per well, duplicate mean: 3631; Outcome: active
PRNP (prion protein (Kanno blood group)) [SID255351836] — migration robust z-score: 2.31; migration class with cell-count check: migration z above 2; enough cells; nuclei per well, duplicate mean: 4935; Outcome: active
